Laboratory results published in paper PMC4844120.
These are yes or no findings as the source states them, for the method shown.

The chains behind the UniProt entries cited, without tags or fusion partners. Residues count along the entry.
UniProt Q13231, residues 22-466: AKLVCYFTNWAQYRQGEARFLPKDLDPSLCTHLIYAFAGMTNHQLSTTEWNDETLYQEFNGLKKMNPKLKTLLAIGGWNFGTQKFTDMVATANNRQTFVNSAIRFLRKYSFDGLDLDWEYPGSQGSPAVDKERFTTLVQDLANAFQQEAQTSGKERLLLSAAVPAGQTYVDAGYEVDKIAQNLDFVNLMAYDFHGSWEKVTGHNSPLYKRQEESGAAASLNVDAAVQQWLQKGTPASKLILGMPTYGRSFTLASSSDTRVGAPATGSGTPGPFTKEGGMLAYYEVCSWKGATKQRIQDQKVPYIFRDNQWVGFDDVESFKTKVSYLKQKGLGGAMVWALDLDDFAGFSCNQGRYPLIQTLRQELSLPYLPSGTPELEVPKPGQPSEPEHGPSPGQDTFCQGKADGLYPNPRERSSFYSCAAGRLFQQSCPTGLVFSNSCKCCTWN

Tests used:
[1] = target: Human chitotriosidase, full length (CHIT1-FL), 50 kDa secreted isoform (human) (UniProt Q13231); assay: crystal structure; X-ray, 1.95 Å, space group P2_(1), two CHIT1-FL molecules in the asymmetric unit; both purified
[2] = target: Human chitotriosidase, full length (CHIT1-FL), 50 kDa secreted isoform (human) (UniProt Q13231); assay: SEC; Superdex 200 HR 16/60 in 10 mM HEPES, 150 mM NaCl pH 7.5; elution peak during purification; both purified
[3] = target: Human chitotriosidase, full length (CHIT1-FL), 50 kDa secreted isoform (human) (UniProt Q13231); assay: native MS; ESI-MS (time-of-flight) of native CHIT1-FL, negative-ion mode; desalted in 50 mM ammonium acetate; both purified

Measured: binding

Human chitotriosidase, full length (CHIT1-FL), 50 kDa secreted isoform (from UniProt Q13231 22-466) (enzyme)
no binding: all assays above
